The other results are listed elsewhere or left out.
How the values were obtained:
Assay in all cases: log2 fold change, soluble protein after heating vs DMSO (PISA); higher = thermal stabilisation; K562 lysate, 10 uM; active = over 0.2 and 3.5 SD of the protein, either way, in both replicates (recomputed)
[1] = compound: C=CC(=O)N1CCC[C@@H](n2nc(-c3ccc(Oc4ccccc4)cc3)c3c(N)ncnc32)C1 [ibrutinib]
Summary of the method: (§1)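 K562 pellets were dounce-homogenised in PBS pH 7.4 containing 1 mM MgCl2, and the crude extract, at 1 mg/mL protein, was exposed to 10 μM compound for 30 min. Aliquots were heated for 3 min across 48°C-58°C, pooled, brought to 0.5% NP-40 at 4°C and spun at 21,000xg for 90 min, with the supernatant taken as soluble protein. TMTpro 16plex LC-MS/MS with equalised channel sums quantified that protein. Values are log-two fold changes in thermal stability relative to solvent controls, taken from duplicates.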

By UniProt entry, the sequences of proteins in these tests, tags left out. Where a name states a change or a piece, a line headed by the entry shows the natural chain unless it says otherwise.
UniProt Q13608: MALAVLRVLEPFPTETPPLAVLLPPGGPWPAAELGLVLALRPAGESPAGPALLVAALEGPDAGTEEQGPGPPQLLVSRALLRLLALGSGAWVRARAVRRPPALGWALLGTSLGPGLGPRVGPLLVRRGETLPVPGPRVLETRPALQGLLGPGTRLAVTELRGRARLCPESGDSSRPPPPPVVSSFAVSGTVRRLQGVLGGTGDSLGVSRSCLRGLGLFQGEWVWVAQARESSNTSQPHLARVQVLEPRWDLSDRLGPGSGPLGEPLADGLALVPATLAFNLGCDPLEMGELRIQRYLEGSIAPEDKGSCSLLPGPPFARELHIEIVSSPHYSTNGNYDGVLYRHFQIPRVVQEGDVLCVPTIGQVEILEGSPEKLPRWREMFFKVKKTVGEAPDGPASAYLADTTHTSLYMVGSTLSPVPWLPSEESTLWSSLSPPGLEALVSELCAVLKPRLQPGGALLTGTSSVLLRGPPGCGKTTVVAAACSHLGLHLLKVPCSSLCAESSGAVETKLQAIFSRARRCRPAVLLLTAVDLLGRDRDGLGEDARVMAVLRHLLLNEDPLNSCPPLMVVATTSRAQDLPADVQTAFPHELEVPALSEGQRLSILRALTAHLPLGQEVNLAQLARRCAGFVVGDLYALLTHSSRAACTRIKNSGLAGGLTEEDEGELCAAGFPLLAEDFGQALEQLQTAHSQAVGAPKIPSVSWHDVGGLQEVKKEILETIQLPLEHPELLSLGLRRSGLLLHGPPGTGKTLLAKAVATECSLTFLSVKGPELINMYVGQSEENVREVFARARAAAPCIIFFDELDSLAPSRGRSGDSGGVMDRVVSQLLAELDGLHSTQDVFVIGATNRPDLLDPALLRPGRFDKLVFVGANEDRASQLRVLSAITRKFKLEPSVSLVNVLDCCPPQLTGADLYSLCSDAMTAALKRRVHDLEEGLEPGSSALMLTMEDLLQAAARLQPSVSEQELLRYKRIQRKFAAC
UniProt Q9P0J1: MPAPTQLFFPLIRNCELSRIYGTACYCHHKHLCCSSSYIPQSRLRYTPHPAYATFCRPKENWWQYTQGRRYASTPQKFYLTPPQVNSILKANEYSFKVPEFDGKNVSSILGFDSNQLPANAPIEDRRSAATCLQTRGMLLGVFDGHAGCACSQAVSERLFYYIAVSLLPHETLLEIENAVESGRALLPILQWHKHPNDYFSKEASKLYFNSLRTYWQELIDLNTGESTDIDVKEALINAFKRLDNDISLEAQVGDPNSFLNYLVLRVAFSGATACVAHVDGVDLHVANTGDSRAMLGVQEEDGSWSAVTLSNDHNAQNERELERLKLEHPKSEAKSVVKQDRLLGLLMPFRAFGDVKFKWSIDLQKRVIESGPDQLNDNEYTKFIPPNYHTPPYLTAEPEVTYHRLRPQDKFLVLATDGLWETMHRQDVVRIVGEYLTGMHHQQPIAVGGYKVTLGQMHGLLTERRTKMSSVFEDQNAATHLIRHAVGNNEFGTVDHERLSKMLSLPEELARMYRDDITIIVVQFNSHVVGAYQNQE
UniProt Q9UBM1: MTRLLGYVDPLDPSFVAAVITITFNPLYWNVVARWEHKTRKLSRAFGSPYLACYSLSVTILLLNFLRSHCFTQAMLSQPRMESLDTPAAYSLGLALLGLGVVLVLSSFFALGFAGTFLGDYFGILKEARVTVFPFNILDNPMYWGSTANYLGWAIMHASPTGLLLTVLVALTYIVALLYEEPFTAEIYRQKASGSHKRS
UniProt O15534, whole entry, looked up: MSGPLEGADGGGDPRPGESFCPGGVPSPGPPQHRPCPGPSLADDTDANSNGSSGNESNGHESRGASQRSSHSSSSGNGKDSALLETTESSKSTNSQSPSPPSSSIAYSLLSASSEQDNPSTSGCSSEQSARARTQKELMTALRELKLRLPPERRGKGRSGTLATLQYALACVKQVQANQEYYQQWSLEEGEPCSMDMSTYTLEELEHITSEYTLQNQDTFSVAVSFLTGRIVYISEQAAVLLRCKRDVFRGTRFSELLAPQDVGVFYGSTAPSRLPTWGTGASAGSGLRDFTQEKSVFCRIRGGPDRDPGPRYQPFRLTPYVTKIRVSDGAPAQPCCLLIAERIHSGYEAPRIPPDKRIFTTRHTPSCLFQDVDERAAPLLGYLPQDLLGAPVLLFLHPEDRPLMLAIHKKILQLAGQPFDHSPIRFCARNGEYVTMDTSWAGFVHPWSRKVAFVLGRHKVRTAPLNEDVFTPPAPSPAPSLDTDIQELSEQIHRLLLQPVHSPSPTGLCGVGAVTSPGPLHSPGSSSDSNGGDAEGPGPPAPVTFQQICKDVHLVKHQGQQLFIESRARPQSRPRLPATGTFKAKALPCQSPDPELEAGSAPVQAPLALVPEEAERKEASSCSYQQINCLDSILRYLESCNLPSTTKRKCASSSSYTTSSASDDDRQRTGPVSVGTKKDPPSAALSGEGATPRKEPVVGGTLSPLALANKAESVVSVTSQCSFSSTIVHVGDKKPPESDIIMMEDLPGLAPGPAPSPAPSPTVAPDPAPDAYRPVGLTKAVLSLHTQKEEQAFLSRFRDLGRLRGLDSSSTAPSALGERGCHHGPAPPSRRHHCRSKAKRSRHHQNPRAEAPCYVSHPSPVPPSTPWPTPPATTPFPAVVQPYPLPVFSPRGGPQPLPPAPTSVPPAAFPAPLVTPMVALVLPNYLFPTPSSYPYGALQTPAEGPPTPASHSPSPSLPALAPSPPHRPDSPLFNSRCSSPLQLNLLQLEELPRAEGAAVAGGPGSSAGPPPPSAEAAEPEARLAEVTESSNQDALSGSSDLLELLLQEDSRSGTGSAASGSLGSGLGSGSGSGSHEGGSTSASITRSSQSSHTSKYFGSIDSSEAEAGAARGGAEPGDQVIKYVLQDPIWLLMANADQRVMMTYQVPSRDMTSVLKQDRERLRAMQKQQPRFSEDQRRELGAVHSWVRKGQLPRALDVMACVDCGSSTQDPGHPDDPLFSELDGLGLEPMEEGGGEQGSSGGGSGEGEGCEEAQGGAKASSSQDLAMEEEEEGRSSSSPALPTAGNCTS
UniProt O43933: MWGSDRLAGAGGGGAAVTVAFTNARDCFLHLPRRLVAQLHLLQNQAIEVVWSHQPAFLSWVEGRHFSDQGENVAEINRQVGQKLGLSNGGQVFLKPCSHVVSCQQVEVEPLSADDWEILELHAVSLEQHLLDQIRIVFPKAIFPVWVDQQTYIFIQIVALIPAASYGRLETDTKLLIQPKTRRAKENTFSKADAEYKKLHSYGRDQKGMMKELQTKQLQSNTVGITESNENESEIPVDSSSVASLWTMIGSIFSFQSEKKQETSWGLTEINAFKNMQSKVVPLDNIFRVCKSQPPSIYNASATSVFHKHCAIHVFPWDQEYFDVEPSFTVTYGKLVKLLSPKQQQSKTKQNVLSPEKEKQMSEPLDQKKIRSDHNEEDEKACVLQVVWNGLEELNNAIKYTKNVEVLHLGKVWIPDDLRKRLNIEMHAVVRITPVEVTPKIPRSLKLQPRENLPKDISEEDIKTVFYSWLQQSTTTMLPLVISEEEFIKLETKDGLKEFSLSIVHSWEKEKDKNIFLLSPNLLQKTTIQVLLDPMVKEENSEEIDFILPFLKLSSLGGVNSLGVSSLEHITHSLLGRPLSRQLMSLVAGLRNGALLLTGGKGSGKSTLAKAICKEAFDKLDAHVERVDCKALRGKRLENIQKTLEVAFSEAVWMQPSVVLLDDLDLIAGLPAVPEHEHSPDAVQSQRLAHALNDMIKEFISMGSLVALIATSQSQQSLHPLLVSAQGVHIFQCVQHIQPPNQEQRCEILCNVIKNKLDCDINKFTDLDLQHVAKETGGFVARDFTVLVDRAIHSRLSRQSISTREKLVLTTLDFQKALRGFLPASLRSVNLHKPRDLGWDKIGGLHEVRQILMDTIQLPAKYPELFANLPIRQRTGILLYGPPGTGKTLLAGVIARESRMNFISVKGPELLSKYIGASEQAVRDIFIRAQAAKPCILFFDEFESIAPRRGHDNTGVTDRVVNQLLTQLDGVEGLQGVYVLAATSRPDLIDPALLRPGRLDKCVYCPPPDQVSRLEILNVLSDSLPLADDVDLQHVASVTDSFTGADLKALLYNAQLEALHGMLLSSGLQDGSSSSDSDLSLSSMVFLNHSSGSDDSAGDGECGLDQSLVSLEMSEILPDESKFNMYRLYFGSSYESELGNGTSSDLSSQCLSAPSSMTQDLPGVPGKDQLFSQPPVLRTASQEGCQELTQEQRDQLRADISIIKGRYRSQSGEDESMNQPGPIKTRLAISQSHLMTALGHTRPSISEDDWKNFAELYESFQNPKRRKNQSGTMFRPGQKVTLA
UniProt Q8N8D1: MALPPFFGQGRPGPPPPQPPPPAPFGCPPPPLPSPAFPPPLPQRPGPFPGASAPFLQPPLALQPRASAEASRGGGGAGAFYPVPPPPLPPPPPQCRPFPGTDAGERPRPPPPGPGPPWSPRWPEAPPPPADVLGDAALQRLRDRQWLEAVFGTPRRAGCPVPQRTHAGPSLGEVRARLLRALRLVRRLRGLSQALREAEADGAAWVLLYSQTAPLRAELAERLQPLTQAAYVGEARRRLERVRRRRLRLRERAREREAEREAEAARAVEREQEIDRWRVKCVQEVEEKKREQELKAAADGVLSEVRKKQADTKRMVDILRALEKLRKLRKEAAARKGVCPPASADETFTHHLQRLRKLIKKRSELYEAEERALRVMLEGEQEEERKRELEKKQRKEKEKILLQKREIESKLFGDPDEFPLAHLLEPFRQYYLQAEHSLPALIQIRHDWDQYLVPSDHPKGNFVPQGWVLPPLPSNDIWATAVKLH
UniProt Q9BSM1: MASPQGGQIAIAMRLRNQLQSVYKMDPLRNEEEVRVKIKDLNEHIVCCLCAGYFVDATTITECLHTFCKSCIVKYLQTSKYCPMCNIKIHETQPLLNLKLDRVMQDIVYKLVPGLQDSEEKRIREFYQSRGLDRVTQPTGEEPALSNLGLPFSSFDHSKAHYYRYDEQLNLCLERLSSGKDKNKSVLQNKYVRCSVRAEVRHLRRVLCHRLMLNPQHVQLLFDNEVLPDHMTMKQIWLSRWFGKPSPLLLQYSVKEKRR
UniProt Q13370: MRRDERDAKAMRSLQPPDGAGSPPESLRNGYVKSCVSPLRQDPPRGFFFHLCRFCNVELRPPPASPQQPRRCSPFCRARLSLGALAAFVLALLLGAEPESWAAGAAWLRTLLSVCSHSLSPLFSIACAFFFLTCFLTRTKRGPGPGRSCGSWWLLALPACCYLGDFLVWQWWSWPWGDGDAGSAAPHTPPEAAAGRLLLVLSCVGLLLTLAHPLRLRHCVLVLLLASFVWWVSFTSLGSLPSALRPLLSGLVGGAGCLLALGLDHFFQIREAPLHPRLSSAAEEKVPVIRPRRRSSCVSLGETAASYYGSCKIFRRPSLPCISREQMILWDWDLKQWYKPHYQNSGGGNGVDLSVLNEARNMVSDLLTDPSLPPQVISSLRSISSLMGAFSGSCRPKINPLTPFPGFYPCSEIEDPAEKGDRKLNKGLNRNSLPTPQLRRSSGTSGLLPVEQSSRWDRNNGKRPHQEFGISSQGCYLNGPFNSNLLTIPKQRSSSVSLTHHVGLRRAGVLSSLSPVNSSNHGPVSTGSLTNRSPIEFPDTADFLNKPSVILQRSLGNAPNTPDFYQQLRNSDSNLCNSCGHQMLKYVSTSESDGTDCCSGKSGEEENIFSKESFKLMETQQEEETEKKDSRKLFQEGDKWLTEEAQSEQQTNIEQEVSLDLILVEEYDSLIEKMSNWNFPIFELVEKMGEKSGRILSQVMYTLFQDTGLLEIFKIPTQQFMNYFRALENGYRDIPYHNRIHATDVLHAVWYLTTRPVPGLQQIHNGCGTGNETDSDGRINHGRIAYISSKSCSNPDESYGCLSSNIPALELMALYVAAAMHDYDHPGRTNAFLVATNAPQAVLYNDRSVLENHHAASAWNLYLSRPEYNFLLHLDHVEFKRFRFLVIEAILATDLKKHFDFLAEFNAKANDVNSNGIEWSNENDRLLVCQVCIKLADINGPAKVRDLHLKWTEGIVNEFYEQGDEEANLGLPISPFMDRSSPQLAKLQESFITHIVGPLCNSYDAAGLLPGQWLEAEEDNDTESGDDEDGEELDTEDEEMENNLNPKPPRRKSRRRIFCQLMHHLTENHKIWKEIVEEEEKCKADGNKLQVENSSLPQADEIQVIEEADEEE

[2] = compound: CC(C)C1=C2N=C(C=C(N2N=C1)NCC3=CC=CC=C3)NCCCCCCN
Summary of the method: as §1

[3] = compound: CC1=C(C2=C(C=C1)C(=O)C3=CC=CC=C3N2CCCN)C
Summary of the method: as §1

[4] = compound: CCN(CCCOc1ccc2c(Nc3cc(CC(=O)Nc4cccc(F)c4)[nH]n3)ncnc2c1)CCOP(=O)(O)O [barasertib]
Summary of the method: as §1

[5] = compound: CC[C@@H]1C(=O)N(C)c2cnc(Nc3ccc(C(=O)NC4CCN(C)CC4)cc3OC)nc2N1C1CCCC1
Summary of the method: as §1

[6] = compound: CCn1cc(-c2ccnc3[nH]c(-c4cccc(CN(C)C)c4)cc23)c(-c2ccc(NC(=O)N(C)C)cc2)n1
Summary of the method: as §1

[7] = compound: CN1CCC(CNc2ccc3ncc(-c4cccc(OC(F)(F)F)c4)n3n2)CC1
Summary of the method: as §1

[8] = compound: CN1CCN(CCOc2cc(OC3CCOCC3)c3c(Nc4c(Cl)ccc5c4OCO5)ncnc3c2)CC1 [saracatinib]
Summary of the method: as §1

[9] = compound: CC1=C(C=C(C=C1)NC(=O)C2=CC(=CC=C2)C(C)(C)C#N)NC3=CC4=C(C=C3)N=CN(C4=O)C
Summary of the method: as §1

[10] = compound: CN1CCN(c2nc(C3=C(c4c[nH]c5ccccc45)C(=O)NC3=O)c3ccccc3n2)CC1 [sotrastaurin]
Summary of the method: as §1

[11] = compound: CC(C)(C)Cn1c(N)nc2ccc(-c3[nH]c(C(C)(C)C)nc3-c3ccc(F)cc3)nc21 [ralimetinib]
Summary of the method: as §1

[12] = compound: CC(C)(O)CC(=O)NCCn1ccc2ncnc(Nc3ccc(Oc4cccc(C(F)(F)F)c4)c(Cl)c3)c21
Summary of the method: as §1

[13] = compound: CC1=C(C=C(C=C1)NC(=O)C2=CC(=CC=C2)N(C)C)NC(=O)C3=CC=C(C=C3)O
Summary of the method: as §1

[14] = compound: CCn1c(C(=O)N(C2CC2)C2CC2)cc2c3c(ncn3C)c(Nc3cc(C)n(C)n3)nc21
Summary of the method: as §1

[15] = compound: CC1=C(C(CC(=O)N1)C2=CC=C(C=C2)C(F)(F)F)C(=O)NC3=C(C=C4C(=C3)C=NN4)F
Summary of the method: as §1

[16] = compound: CCCS(=O)(=O)Nc1ccc(F)c(C(=O)c2c[nH]c3ncc(-c4ccc(Cl)cc4)cc23)c1F [vemurafenib]
Summary of the method: as §1

[17] = compound: CC(=O)c1cnc2ccc(-c3cc(Cl)c(O)c(Cl)c3)nc2c1N[C@H]1CC[C@H](CN(C)C)CC1
Summary of the method: as §1

[18] = compound: CC1=CC=C(C=C1)SC2=C3C=C(SC3=CN=C2)C(=O)N
Summary of the method: as §1

[19] = compound: CCCS(=O)(=O)Nc1ccc(F)c(C(=O)c2c[nH]c3ncc(Cl)cc23)c1F
Summary of the method: as §1

[20] = compound: CC[C@@H]1C(=O)N(C)c2cnc(Nc3ccc(C(=O)N[C@H]4CC[C@H](N5CCN(CC6CC6)CC5)CC4)cc3OC)nc2N1C(C)C [volasertib]
Summary of the method: as §1

Measured: log2 fold change

PEX6 (UniProt Q13608)
inactive: [1] 0.365 | [2] -0.03 | [3] 0.086 | [4] -0.107 | [5] 0.181 | [6] 0.024 | [7] -0.29 | [8] -0.001

PGAP2 isoform 2 (UniProt Q9UHJ9)
inactive: [5] -0.055

PCM1 isoform 5 (UniProt Q15154)
inactive: [9] 0.079 | [5] -0.022 | [10] 0.009

PDP1 isoform 2 (UniProt Q9P0J1)
inactive: [11] -0.174 | [12] -0.239 | [2] 0.056 | [3] 0.079 | [13] -0.021 | [5] 0.018 | [14] -0.743 | [8] -0.062

PCBP2 (UniProt F8W0G4)
inactive: [1] -0.27 | [11] -0.061 | [12] -0.282 | [2] -0.175 | [15] -0.045 | [3] -0.083 | [13] 0.049 | [16] 0.121 | [4] 0.035 | [5] -0.253 | [14] -0.066 | [8] 0.005

Taken from above (3 entries):
PEX6 (UniProt Q13608)
inactive: [1] 0.365 | [2] -0.03 | [3] 0.086 | [4] -0.107 | [5] 0.181 | [6] 0.024 | [7] -0.29 | [8] -0.001

PGAP2 isoform 2 (UniProt Q9UHJ9)
inactive: [5] -0.055

PCM1 isoform 5 (UniProt Q15154)
inactive: [9] 0.079 | [5] -0.022 | [10] 0.009

More results:

PEMT isoform 2 (UniProt Q9UBM1)
inactive: [17] 0.257 | [18] 0.076 | [16] 0.214 | [19] 0.032 | [20] -0.096 | [6] 0.129 | [7] 0.041

PDIA4, A0A499FI48
active: [6] 1.69
inactive: [3] -0.017 | [9] -0.066 | [7] -0.33 | [8] 0.03 | [10] -0.048

PER1 (UniProt O15534)
inactive: [3] -0.087 | [9] 0.126 | [6] -0.173 | [7] -0.047 | [8] -0.111 | [10] -0.154

PEX1 (UniProt O43933)
inactive: [17] -0.066 | [11] 0.113 | [12] 0.07 | [9] 0.021 | [13] 0 | [18] 0.013 | [16] -0.34 | [19] 0.076 | [5] -0.159 | [20] 0.055 | [14] 0.039 | [10] -0.03

PDCD7 (UniProt Q8N8D1)
inactive: [9] -0.297 | [5] -0.204 | [10] -0.038

PCGF1 (UniProt Q9BSM1)
inactive: [2] 0.027 | [3] -0.056 | [16] 0.151 | [5] 0.052 | [6] -0.21 | [7] -0.021 | [8] 0.036

PDE3B (UniProt Q13370)
inactive: [11] 0.065 | [12] 0.058 | [3] -0.062 | [13] -0.064 | [14] 0 | [6] 0.074 | [7] -0.035 | [8] 0.039

From the supplement of paper PMC10849652
